The campaign covered roughly 340,000 compounds. About 6,200 (1.8%) were called active. This list was built around the results that the source calls inconclusive (neither active nor inactive); the mix of calls is not that of the screen. Calls come from the whole dose curve; as a rule, active = well fitted activation curve with a large enough effect; inconclusive = small, poorly fitted or top-dose-only effect; inactive = no such curve, though single readings can be large or run the other way. Potencies beside an inconclusive call are fits to weak or partial responses and may not hold up.
Test: A quantitative high throughput screen for small molecules that induce DNA re-replication in SW480 colon adenocarcinoma cells. For re-replication activation: % of control where 0% means no effect. Note: nearly all actives have a fitted effect of over 55% in size.
Settings: Hoechst DNA content imaging, 48 h; re-replication activation: at 46.1 µM (top of the series) unless noted
Outline: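 Image-based read-out: total Hoechst fluorescence of nuclei (405 nm excitation, 500-530 nm emission), with hits raising the fraction of high-intensity nuclei. SW480 colon cells incubated 48 hr with compounds at 37 C.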
Potency is the fitted concentration of half-maximal effect.

| SMILES | re-replication activation | Potency |
| --- | --- | --- |
| CC(Oc1ccccc1)C(=O)N1CCN(c2ncccn2)CC1 (configuration not stated) | inactive: 1.38% |  |
| COc1cc(OCc2ccccc2)c(C(=O)/C=C/c2ccc3c(c2)OCO3)c(OC)c1OC |  | inconclusive: 25.9 µM [activator, single point] |
| COc1ccccc1Nc1ccc(C(=O)NCc2cccs2)cn1 |  | inconclusive: 7.31 µM [activator, full curve, poor fit] |
| Cc1cc(O)ccc1N/C=C(\C#N)c1nc2ccccc2o1 |  | inconclusive: 18.4 µM [activator, single point] |
| Cc1c(-c2nc(N)nc(Nc3ccccc3F)n2)oc2ccccc12 |  | inconclusive: 14.6 µM [activator, partial curve, poor fit] |
| C1CCN2CC3CC(CN4CCCC[C@@H]34)[C@H]2C1 |  | inconclusive: 1 µM [activator, partial curve, poor fit] |
| COc1cc(C(=O)NCc2ccc(S(N)(=O)=O)cc2)ccc1OCC(=O)N1CCOCC1 | inactive: -10.6% |  |
| CCOC(=O)/C(C#N)=C\c1cc(OC)c(OC)cc1[N+](=O)[O-] |  | inconclusive: 20.6 µM [activator, single point] |
| Cc1ccc(NC(=O)CN2CCC(NC(=O)C3CCCCC3)CC2)c(Br)c1 | inactive: -7.4% |  |
| COc1ccc(-c2nc(C(=O)NCCCN3CCOCC3)cc3c2[nH]c2ccccc23)cc1OC |  | inconclusive: 8.2 µM [activator, single point] |
| COc1ccc(OC)c(NC2=C(Cl)C(=O)N(Cc3ccccc3)C2=O)c1 | inactive: 6.44% |  |
| O=C(CSc1nn(-c2ccc(Cl)cc2)c(=S)s1)N1CCN(C(=O)c2ccco2)CC1 |  | inconclusive: 18.4 µM [activator, single point] |
| O=C(CSC1=NS(=O)(=O)c2cc(Cl)ccc2N1)c1ccc(Cl)cc1 |  | inconclusive: 6.51 µM [activator, partial curve, poor fit] |
| CC1(C)CC2CC(C)(CN2S(=O)(=O)c2ccc(C(=O)Nc3cccc(S(=O)(=O)N4CCOCC4)c3)cc2)C1 (configuration not stated) | inactive: 0.293% |  |
| Cc1nc(N)[nH]c(=O)c1Oc1cccc(C(F)(F)F)c1 |  | inconclusive: 7.31 µM [activator, partial curve, poor fit] |
| COc1ccc(N2CCN(C(=O)c3ccc(Oc4ccc(C(F)(F)F)cn4)cc3)CC2)cc1 | inactive: 0.954% |  |
| O=C(Nc1nccs1)c1ncc(Cl)c(Cl)c1Cl |  | inconclusive: 29.1 µM [activator, single point] |
| COc1ccc(NC(=O)CN(C)S(=O)(=O)c2cnc[nH]2)cc1Cl |  | inconclusive: 5.17 µM [activator, partial curve, poor fit] |
| O=C(Nc1ccc(Br)cc1)c1cccnc1N1CCOCC1 | inactive: 2.59% |  |
| O=C(CN1C(=O)NC2(CCCc3ccccc32)C1=O)Nc1cccc(S(=O)(=O)N2CCCCC2)c1 (configuration not stated) |  | inconclusive: 8.2 µM [activator, single point] |
| CSCCC1NC(=O)N(CC(=O)Nc2ccc3c(c2)OCCO3)C1=O (configuration not stated) |  | inconclusive: 20.6 µM [activator, single point] |
| CN(C)CCN=Cc1c(O)n(-c2ccc(S(=O)(=O)N3CCOCC3)cc2)c(=O)c2ccccc12 |  | active: 18.4 µM |
| CCSc1nnc(NC(=O)Cc2cc(OC)c(OC)c(OC)c2)s1 |  | inconclusive: 25.9 µM [activator, single point] |
| COc1ccc(-c2nc3nc(SC)nn3cc2C)cc1F | inactive: -1.5% |  |

A second format for part of the listing above.
SMILES | re-replication activation | Potency
CC1(C)CC2CC(C)(CN2S(=O)(=O)c2ccc(C(=O)Nc3cccc(S(=O)(=O)N4CCOCC4)c3)cc2)C1 (configuration not stated) | inactive: 0.293% | 
Cc1nc(N)[nH]c(=O)c1Oc1cccc(C(F)(F)F)c1 |  | inconclusive: 7.31 µM [activator, partial curve, poor fit]
COc1ccc(N2CCN(C(=O)c3ccc(Oc4ccc(C(F)(F)F)cn4)cc3)CC2)cc1 | inactive: 0.954% | 
O=C(Nc1nccs1)c1ncc(Cl)c(Cl)c1Cl |  | inconclusive: 29.1 µM [activator, single point]
COc1ccc(NC(=O)CN(C)S(=O)(=O)c2cnc[nH]2)cc1Cl |  | inconclusive: 5.17 µM [activator, partial curve, poor fit]
O=C(Nc1ccc(Br)cc1)c1cccnc1N1CCOCC1 | inactive: 2.59% | 

Next results follow:

| SMILES | re-replication activation | Potency |
| --- | --- | --- |
| Cc1cccc(Nc2nc(-c3ccc(F)cc3)cs2)n1 | inactive: 0.915% |  |
| CCOC(=O)N1C2=NC(C(=O)OC)=C(C(=O)OC)[C@@H]3N(C)c4ccc(OC)cc4[C@]23C[C@H]1C(=O)OC | inactive: -8.07% |  |
| CCN1C(=NCCc2cccs2)N[C@@H](c2cccs2)C(C(=O)OC)=C1C | inactive: -3.07% |  |
| CCn1c(C(=O)N2CCC(C(=O)NCCCSC3CCCCC3)CC2)cc2sccc21 | inactive: -3.2% |  |
| CCN1CCN(c2ccc(S(=O)(=O)N3CCCCC3)cc2NC(=O)COc2ccc(Cl)c(C)c2)CC1 |  | active: 16.4 µM |
| Cc1nc(CCN2C(=O)c3ccccc3C2=O)n[nH]1 |  | inconclusive: 29.1 µM [activator, partial curve, poor fit] |
| Cc1ccc(CC(=O)Nc2nncs2)cc1 | inactive: -16.8% |  |
| CCN(C(=O)CN1CCN(c2ccc(O)cc2)CC1)c1c(N)n(Cc2ccccc2)c(=O)[nH]c1=O |  | inconclusive: 29.1 µM [activator, partial curve, poor fit] |
| CCc1nnc(SCC(=O)Nc2ccccc2)n1CC1CCCO1 (configuration not stated) | inactive: -4.54% |  |
| CCN(CC(=O)Nc1cccc(OC)c1)C(=O)c1cnc(Cl)c(Cl)c1 | inactive: -26.5% |  |
| Cc1nc([N+](=O)[O-])cn1CC(O)c1ccc(F)cc1 (configuration not stated) |  | inconclusive: 2.91 µM [activator, single point] |
| CC(C)Cn1cnc2c(c(-c3ccccc3)c(-c3ccccc3)n2Cc2ccco2)c1=N |  | inconclusive: 29.1 µM [activator, single point] |
| Cc1ccccc1N1C(=O)c2cc(S(N)(=O)=O)c(Cl)cc2NC1C (configuration not stated) | inactive: -28.7% |  |
| COc1cc(/C=C/C(=O)N2CCN(C(=O)/C=C/c3cc(OC)c(OC)c(OC)c3)CC2)cc(OC)c1OC | inactive: -1.09% |  |
| Cc1ccc2c(c1)C(=O)C(=O)N2CCCOc1ccccc1 |  | inconclusive: 23.1 µM [activator, single point] |
| Cc1ccc(S(=O)(=O)NC(CC(C)C)C(=O)N2CCC(C)CC2)cc1 (configuration not stated) |  | inconclusive: 0.651 µM [activator, full curve, poor fit] |
| O=C(CCC1CCCC1)Nc1ccc([N+](=O)[O-])cn1 | inactive: -1.8% |  |
| Cc1cc2c3c(c1C)C1(C(=O)N3C(C)(C)CC2C)C(C#N)=C(N)OC2=C1C(=O)CC(C)(C)C2 (configuration not stated) |  | inconclusive: 32.6 µM [activator, partial curve, poor fit] |
| COc1ccc(-c2csc3ncnc(N4CCN(c5cccc(OC)c5)CC4)c23)cc1 | inactive: -1.09% |  |
| COCC(=O)N1CCN(c2cccc(C(F)(F)F)c2)CC1 | inactive: 10.2% |  |
| COc1ccc2cc3cc(C(=O)N4CCN(Cc5ccc6c(c5)OCO6)CC4)oc3nc2c1 | inactive: 3.4% |  |
| O=C(Nc1ccc(OCC(F)(F)C(F)F)c(C(F)(F)F)c1)c1ccc(Cl)cc1 |  | inconclusive: 20.6 µM [activator, single point] |
| O=C(c1ccccc1-n1cccc1)N1N=C(C(F)F)CC1(O)C(F)F (configuration not stated) |  | inconclusive: 0.461 µM [activator, full curve, poor fit] |
| COc1ccc(S(=O)(=O)n2nc(-c3ccc(Cl)cc3)cc2N)cc1 |  | inconclusive: 11.6 µM [activator, single point] |

| SMILES | re-replication activation | Potency |
| --- | --- | --- |
| O=C(c1cc(F)ccc1F)N1CCC(N2CCC(C(=O)N3CCCC3)CC2)CC1 |  | inconclusive: 0.0052 µM [activator, full curve, poor fit] |
| COc1cc(C(=O)Nc2cccc(-n3cnnn3)c2)cc(Cl)c1OC | inactive: 3.74% |  |
| C=Cn1cc[n+](CC(=O)c2ccc(Cl)c(Cl)c2)c1 |  | inconclusive: 18.4 µM [activator, partial curve, poor fit] |
| O=C(Nc1ccc2nn(-c3ccccc3)nc2c1)c1ccc(Br)o1 |  | inconclusive: 20.6 µM [activator, single point] |
| O=c1oc(-c2cccs2)nc2sc3c(c12)CCCC3 |  | inconclusive: 18.4 µM [activator, single point] |
| CCOC(=O)c1sc(=S)n(C)c1NC(=O)c1ccc(F)cc1 | inactive: -0.372% |  |
| Cc1cc(Cl)ccc1NC(=S)NCCCO | inactive: -3.13% |  |
| COc1ccccc1-c1cn[nH]c1-c1ccc(O)cc1O | inactive: -12.5% |  |
| Cc1ccsc1C(=O)NC1CCCN(Cc2ccc(Cl)cc2)C1 (configuration not stated) |  | inconclusive: 20.6 µM [activator, single point] |
| CCn1c2ccccc2c2cc(CNCCCN3CCOCC3)ccc21 |  | inconclusive: 11.6 µM [activator, partial curve, poor fit] |
| Cc1cccc(OCC(O)Cn2c(=N)n(CCN3CCCCC3)c3ccccc32)c1 (configuration not stated) |  | inconclusive: 29.1 µM [activator, single point] |
| CCc1ccc(-c2cc(C(=O)NCc3ccccn3)c3ccccc3n2)cc1 | inactive: 2.65% |  |
| COc1ccccc1CNC(=O)COC(=O)C1=COCCO1 |  | inconclusive: 23.1 µM [activator, single point] |
| Clc1ccc(SCc2cn3ccccc3n2)cc1 | inactive: -6.75% |  |
| COc1ccc(F)cc1S(=O)(=O)NCc1cc(=O)n(C)c(=O)n1C | inactive: -3.24% |  |
| CN(C)c1ccc(S(=O)(=O)N(C)C)cc1NC(=O)Cc1cccc2ccccc12 | inconclusive: -37.6% [activator] |  |
| Cc1ccc(C)c(OCC(O)CN2C(C)CCCC2C)c1 (configuration not stated) |  | inconclusive: 29.1 µM [activator, single point] |
| COc1ccc(C(=O)c2c(N)sc3c2CCN(C(=O)OC(C)(C)C)C3)cc1 |  | inconclusive: 32.6 µM [activator, partial curve, poor fit] |
| N/C(Cn1cncn1)=N\NC(=O)c1ccc(Cl)cc1Cl |  | inconclusive: 6.51 µM [activator, single point] |
| COc1ccc(NC(=S)N2CCNC(=O)C2CC(=O)Nc2cccc(Cl)c2C)cc1 (configuration not stated) | inactive: 0.0522% |  |
| Cc1ccc(Nc2nc(N)nc(CN3CCN(c4ccccc4)CC3)n2)cc1Cl | inactive: 10% |  |
| O=[N+]([O-])c1cccnc1N1CCC(c2cc(-c3cccc(C(F)(F)F)c3)n[nH]2)CC1 |  | inconclusive: 3.66 µM [activator, full curve, poor fit] |
| CC(=O)N(C)c1ccc(C=C2C=Cc3ccccc32)cc1 |  | inconclusive: 18.4 µM [activator, single point] |
| O=C(NC12CC3CC(CC(C3)C1)C2)N(Cc1ccccc1)Cc1ccncc1 | inactive: 14.9% |  |

— PubChem BioAssay AID624297 (National Center for Advancing Translational Sciences (NCATS), 2012)
